Measurements reported in PubChem BioAssay AID504793 (Drosophila RNAi Screening Center, 2011)
In all, the deposit lists about 23,000 reagents; below is an unselected part of those that have a named target and a result. Of all reagents, 62 (0.27%) were called active. 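Calls come from follow-up tests whose scores are not deposited, so confirmed genes may have low counts here; counts are not normalised per plate.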 The raw values are shown without normalisation. The numbers tell different reagents against one gene apart. A plus sign joins genes that one reagent is predicted to hit. No sequences are given here.

Test: 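Whole-genome screen for parts of the DNA damage checkpoint at G2/M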 (primary screen)
Cells: Drosophila S2R+ cells
Knock-down reagent: long dsRNA against Drosophila genes, about 0.25 µg dsRNA per well
Timing: 4 days of dsRNA, then 4 hours of drug before read-out
Treatment: doxorubicin 0.5 µM for 4 hours to cause double-strand breaks, in cells also given a low, harmless dose of dsRNA against nbs to sensitise the assay
Detection: 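Per-well count of mitotic cells stained for phospho-histone H3 after doxorubicin exposure, used as mitotic index; counts are raw and not normalised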
Reading the numbers: mitotic cells: higher = more cells in mitosis, weaker G2 arrest
Call rule: 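a call needs confirmation in secondary tests, with other dsRNAs and a check of mitotic timing without damage, not just a high primary count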
Meaning of the calls: active = confirmed in follow-up tests; inactive = not confirmed

The first 13 entries as a preview:
Gene | reagent no. | mitotic cells, replicate 1 | mitotic cells, replicate 2 | call
hook | 1 | 5 | – | inactive
CG11141 | 1 | 6 | – | inactive
CG5096 | 1 | 3 | – | inactive
CARPA (Carbonic anhydrase-related protein A) | 1 | 8 | – | inactive
CARPA (Carbonic anhydrase-related protein A) | 2 | 5 | – | inactive
Kdm2 (Lysine demethylase 2) | 1 | 4 | – | inactive
CG31210 (retired record) + CG4836 | 1 | 18 | – | inactive
hts (hu li tai shao) | 1 | 4 | – | inactive
hts (hu li tai shao) | 2 | 6 | – | inactive
Patj | 1 | 2 | – | inactive
Patj | 2 | 5 | – | inactive
Arp8 (Actin-related protein 8) | 1 | 5 | – | inactive
Arp8 (Actin-related protein 8) | 2 | 4 | – | inactive

The list itself, from the first entry:
Gene | reagent no. | mitotic cells, replicate 1 | mitotic cells, replicate 2 | call
hook | 1 | 5 | – | inactive
CG11141 | 1 | 6 | – | inactive
CG5096 | 1 | 3 | – | inactive
CARPA (Carbonic anhydrase-related protein A) | 1 | 8 | – | inactive
CARPA (Carbonic anhydrase-related protein A) | 2 | 5 | – | inactive
Kdm2 (Lysine demethylase 2) | 1 | 4 | – | inactive
CG31210 (retired record) + CG4836 | 1 | 18 | – | inactive
hts (hu li tai shao) | 1 | 4 | – | inactive
hts (hu li tai shao) | 2 | 6 | – | inactive
Patj | 1 | 2 | – | inactive
Patj | 2 | 5 | – | inactive
Arp8 (Actin-related protein 8) | 1 | 5 | – | inactive
Arp8 (Actin-related protein 8) | 2 | 4 | – | inactive
Or43b (Odorant receptor 43b) | 1 | 4 | – | inactive
Or43b (Odorant receptor 43b) | 2 | 3 | – | inactive
sPLA2 (secretory Phospholipase A2) | 1 | 9 | – | inactive
sPLA2 (secretory Phospholipase A2) | 2 | 5 | – | inactive
CG3376 | 1 | 4 | – | inactive
CG3376 | 2 | 4 | – | inactive
CG31300 | 1 | 7 | – | inactive
CG31300 | 2 | 7 | – | inactive
ATPsynCF6L (ATP synthase, coupling factor 6-like) | 1 | 5 | – | inactive
ATPsynCF6L (ATP synthase, coupling factor 6-like) | 2 | 5 | – | inactive
Jon65Ai (Jonah 65Ai) | 1 | 1 | – | inactive
Jon65Ai (Jonah 65Ai) | 2 | 6 | – | inactive
CG13365 | 1 | 10 | – | inactive
CG13365 | 2 | 5 | – | inactive
HIP + HIP-R | 1 | 5 | – | inactive
HIP + HIP-R | 2 | 16 | – | inactive
RfC3 (Replication factor C subunit 3) | 1 | 7 | – | inactive
Pkc53E (Protein C kinase 53E) | 1 | 4 | – | inactive
ArgRS-m (Arginyl-tRNA synthetase, mitochondrial) | 1 | 1 | 11 | inactive
CG30008 | 1 | 10 | – | inactive
CG30008 | 2 | 10 | – | inactive
CG33110 | 1 | 15 | – | inactive
CG33110 | 2 | 6 | – | inactive
elB (elbow B) | 1 | 2 | – | inactive
elB (elbow B) | 2 | 8 | – | inactive
CG13031 | 1 | 5 | – | inactive
pyx (pyrexia) | 1 | 2 | – | inactive
pyx (pyrexia) | 2 | 5 | – | inactive
pyx (pyrexia) | 3 | 8 | – | inactive
CG12640 | 1 | 10 | – | inactive
CG12640 | 2 | 6 | – | inactive
gd (gastrulation-defective) | 1 | 4 | – | inactive
eIF3f2 (eukaryotic translation initiation factor 3 subunit f2) | 1 | 4 | – | inactive
CG9395 | 1 | 4 | – | inactive
CG9395 | 2 | 10 | – | inactive
side-III (sidestep III) | 1 | 7 | – | inactive
side-III (sidestep III) | 2 | 6 | – | inactive
side-III (sidestep III) | 3 | 6 | – | inactive
side-III (sidestep III) | 4 | 7 | – | inactive
LRP1 (LDL receptor protein 1) | 1 | 7 | – | inactive
CG34276 | 1 | 4 | – | inactive
Naxd (NAD(P)HX dehydratase) | 1 | 7 | – | inactive
Cyp4g1 (Cytochrome P450 4g1) | 1 | 5 | – | inactive
Cyp4g1 (Cytochrome P450 4g1) | 2 | 2 | – | inactive
Ran | 1 | 5 | – | inactive
Ran | 2 | 3 | – | inactive
nmdyn-D6 | 1 | 11 | – | inactive
CG15728 | 1 | 2 | – | inactive
CG15728 | 2 | 12 | – | inactive
CG15728 | 3 | 5 | – | inactive
Mst84B (Male-specific transcript 84B) | 1 | 2 | – | inactive
Mst84B (Male-specific transcript 84B) | 2 | 7 | – | inactive
CG1927 | 1 | 9 | – | inactive
chic (chickadee) | 1 | 4 | – | inactive
CG13471 | 1 | 8 | – | inactive
cdi (center divider) | 1 | 6 | – | inactive
cdi (center divider) | 2 | – | – | inactive
Ugt37A2 (UDP-glycosyltransferase family 37 member A2) | 1 | 9 | – | inactive
Ugt37A2 (UDP-glycosyltransferase family 37 member A2) | 2 | 7 | – | inactive
Brd (Bearded) | 1 | 4 | – | inactive
mEFTs (mitochondrial translation elongation factor Ts) | 1 | 7 | – | inactive
mEFTs (mitochondrial translation elongation factor Ts) | 2 | 6 | – | inactive
Ilp4 (Insulin-like peptide 4) | 1 | 2 | – | inactive
Ilp4 (Insulin-like peptide 4) | 2 | 6 | – | inactive
CG14607 | 1 | 2 | – | inactive
CG10730 | 1 | 7 | – | inactive
CG10730 | 2 | 3 | – | inactive
EMC6 (ER membrane protein complex subunit 6) | 1 | 11 | – | inactive
ng2 + ng1 | 1 | 2 | – | inactive
Creld (Cysteine rich with EGF like domains) | 1 | 5 | – | inactive
Creld (Cysteine rich with EGF like domains) | 2 | 11 | – | inactive
CG7248 | 1 | 6 | – | inactive
mei-W68 (meiotic W68) | 1 | 5 | – | inactive
Cep97 (Centrosomal protein 97kDa) | 1 | 4 | – | inactive
ref(2)P (refractory to sigma P) | 1 | 4 | – | inactive
CG18268 + CG3014 | 1 | 2 | – | inactive
loopin-1 | 1 | 7 | – | inactive
loopin-1 | 2 | 6 | – | inactive
Oatp33Eb (Organic anion transporting polypeptide 33Eb) | 1 | 3 | – | inactive
CG8539 | 1 | 2 | – | inactive
CG8539 | 2 | 4 | – | inactive
CG8539 | 3 | 7 | – | inactive
CG14636 | 1 | 7 | – | inactive
CG14636 | 2 | 6 | – | inactive
CG15635 | 1 | 13 | – | inactive
CG15635 | 2 | 7 | – | inactive
Polr3B (RNA polymerase III subunit B) | 1 | 11 | – | inactive
Prx6c + CG12896 + Prx6b | 1 | 6 | – | inactive
Prx6c + CG12896 + Prx6b | 2 | 3 | – | inactive
CG6770 | 1 | 4 | 9 | inactive
CG6770 | 2 | 8 | – | inactive
CG15034 | 1 | 16 | – | inactive
CG32181 | 1 | 11 | – | inactive
CG32181 | 2 | 5 | – | inactive
CG2614 | 1 | 4 | – | inactive
Lamtor5 (Late endosomal/lysosomal adaptor, MAPK and MTOR activator 5) | 1 | 17 | – | inactive
alpha-Est1 (alpha-Esterase-1) | 1 | 4 | – | inactive
